Assay results taken from publication PMC3798694.
Results are given in words; binding and its absence hold for the method and conditions named. A result given as binding can be weak or reduced; the word gives no strength. For some of these results: Tags and fused reporters may be left off the sequences shown. For some of these results: In cells and extracts the contact can be indirect. Blank lines part the entries; values can stand above or below the molecule they belong to.

Amino acid sequences for entries named in this document (tags omitted). A change or cut given only in a name is not applied to a line headed by its entry.
UniProt P59676: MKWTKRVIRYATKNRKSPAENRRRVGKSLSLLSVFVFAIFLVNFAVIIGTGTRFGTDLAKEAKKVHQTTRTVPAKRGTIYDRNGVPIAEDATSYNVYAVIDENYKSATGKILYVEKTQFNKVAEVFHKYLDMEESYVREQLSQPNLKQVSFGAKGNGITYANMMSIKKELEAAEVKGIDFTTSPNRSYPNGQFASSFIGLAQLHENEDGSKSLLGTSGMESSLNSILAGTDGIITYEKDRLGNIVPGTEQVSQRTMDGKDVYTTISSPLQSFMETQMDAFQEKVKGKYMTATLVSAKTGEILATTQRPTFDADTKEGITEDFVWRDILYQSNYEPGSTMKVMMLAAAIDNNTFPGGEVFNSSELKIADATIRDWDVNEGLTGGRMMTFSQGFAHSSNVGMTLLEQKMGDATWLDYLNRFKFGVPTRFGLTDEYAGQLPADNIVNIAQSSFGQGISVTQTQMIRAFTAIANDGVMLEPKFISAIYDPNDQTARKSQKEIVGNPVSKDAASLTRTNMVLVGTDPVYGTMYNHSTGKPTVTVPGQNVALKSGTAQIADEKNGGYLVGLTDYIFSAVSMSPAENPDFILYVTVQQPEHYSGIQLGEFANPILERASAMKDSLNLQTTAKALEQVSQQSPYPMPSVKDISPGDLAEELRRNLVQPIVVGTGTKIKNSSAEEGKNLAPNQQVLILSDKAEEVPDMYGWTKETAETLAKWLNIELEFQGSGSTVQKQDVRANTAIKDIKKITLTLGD
UniProt A0ACD7PRK7: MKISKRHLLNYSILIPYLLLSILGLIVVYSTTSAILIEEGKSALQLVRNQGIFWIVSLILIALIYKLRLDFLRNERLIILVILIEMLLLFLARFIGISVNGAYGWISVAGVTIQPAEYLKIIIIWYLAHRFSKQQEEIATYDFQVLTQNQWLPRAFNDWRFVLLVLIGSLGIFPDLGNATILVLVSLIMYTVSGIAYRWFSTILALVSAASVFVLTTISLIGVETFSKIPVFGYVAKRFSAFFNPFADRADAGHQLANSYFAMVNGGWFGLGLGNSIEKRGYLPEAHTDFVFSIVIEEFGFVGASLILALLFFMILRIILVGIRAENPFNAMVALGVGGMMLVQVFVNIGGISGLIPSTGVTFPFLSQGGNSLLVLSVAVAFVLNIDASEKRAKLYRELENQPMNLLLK

Experiments:
[1] = biological target: H-FtsW (His-tagged full length FtsW of Streptococcus pneumoniae) (S. pneumoniae R6); experiment: pull-down; Proteins co-expressed in one E. coli strain; membranes solubilised with 10 mM DDM; His-tagged protein held on Ni-NTA, washed with 50 mM imidazole, eluted with 300 mM imidazole; HNG buffer (50 mM HEPES pH 7.5, 50 mM NaCl, 10% glycerol); Coomassie SDS-PAGE, Western blot; some complexes also in Triton X-100
[2] = biological target: H-FtsW (His-tagged full length FtsW of Streptococcus pneumoniae) (S. pneumoniae R6); experiment: SEC; Affinity-purified, concentrated protein or complexes on Superdex 200 10/30 or Superose 6 16/60 in HNG buffer with 0.3 mM DDM; peaks checked by immuno-blotting; both purified
[3] = biological target: T1, PBP2b-S (Strep-tagged full length PBP2b of Streptococcus pneumoniae) (S. pneumoniae R6) (UniProt P0A3M6); experiment: pull-down; Proteins co-expressed in one E. coli strain; DDM-solubilised membranes or Ni-NTA eluate; Strep-tagged protein held on Strep-Tactin (first or second step), eluted with 2.5 mM desthiobiotin; HNG buffer, 0.3 mM DDM; Coomassie SDS-PAGE, Western blot
T1 sequence: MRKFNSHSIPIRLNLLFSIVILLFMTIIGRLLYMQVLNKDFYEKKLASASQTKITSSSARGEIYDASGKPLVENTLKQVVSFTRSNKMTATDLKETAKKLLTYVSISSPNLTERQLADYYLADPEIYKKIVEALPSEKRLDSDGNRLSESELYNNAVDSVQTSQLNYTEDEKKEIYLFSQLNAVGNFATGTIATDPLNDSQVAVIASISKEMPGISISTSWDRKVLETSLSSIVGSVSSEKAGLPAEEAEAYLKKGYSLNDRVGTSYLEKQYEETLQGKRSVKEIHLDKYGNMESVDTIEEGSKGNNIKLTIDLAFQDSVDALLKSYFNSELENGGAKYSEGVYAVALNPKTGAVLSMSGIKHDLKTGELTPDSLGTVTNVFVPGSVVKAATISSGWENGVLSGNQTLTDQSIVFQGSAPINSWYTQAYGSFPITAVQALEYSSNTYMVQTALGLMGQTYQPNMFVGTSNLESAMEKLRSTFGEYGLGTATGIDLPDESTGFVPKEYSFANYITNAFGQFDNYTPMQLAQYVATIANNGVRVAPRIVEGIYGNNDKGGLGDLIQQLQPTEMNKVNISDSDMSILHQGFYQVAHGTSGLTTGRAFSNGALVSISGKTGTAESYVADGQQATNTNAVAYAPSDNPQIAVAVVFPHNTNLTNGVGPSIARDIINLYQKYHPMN

[4] = biological target: PBP2x-S (Strep-tagged full length PBP2x of Streptococcus pneumoniae) (S. pneumoniae R6) (UniProt P59676); experiment: as above
[5] = biological target: H-DivIB (His-tagged full length DivIB of Streptococcus pneumoniae) (S. pneumoniae R6); experiment: pull-down; Proteins co-expressed in one E. coli strain; membranes solubilised with 10 mM DDM; His-tagged protein held on Ni-NTA, washed with 50 mM imidazole, eluted with 300 mM imidazole; HNG buffer (50 mM HEPES pH 7.5, 50 mM NaCl, 10% glycerol); Coomassie SDS-PAGE, Western blot; some complexes also in Triton X-100
[6] = biological target: H-DivIB (His-tagged full length DivIB of Streptococcus pneumoniae) (S. pneumoniae R6); experiment: SEC; Affinity-purified, concentrated protein or complexes on Superdex 200 10/30 or Superose 6 16/60 in HNG buffer with 0.3 mM DDM; peaks checked by immuno-blotting; both purified

Molecule: PBP2x-S (Strep-tagged full length PBP2x of Streptococcus pneumoniae) (from UniProt P59676 1-750) (enzyme)
binding [1]: binds
binding [2]: binds

Molecule: H-FtsW (His-tagged full length FtsW of Streptococcus pneumoniae) (from UniProt A0ACD7PRK7)
binding [4]: binds

B1: PBP2b-S (Strep-tagged full length PBP2b of Streptococcus pneumoniae) (enzyme, UniProt P0A3M6 1-680)
chain: MRKFNSHSIPIRLNLLFSIVILLFMTIIGRLLYMQVLNKDFYEKKLASASQTKITSSSARGEIYDASGKPLVENTLKQVVSFTRSNKMTATDLKETAKKLLTYVSISSPNLTERQLADYYLADPEIYKKIVEALPSEKRLDSDGNRLSESELYNNAVDSVQTSQLNYTEDEKKEIYLFSQLNAVGNFATGTIATDPLNDSQVAVIASISKEMPGISISTSWDRKVLETSLSSIVGSVSSEKAGLPAEEAEAYLKKGYSLNDRVGTSYLEKQYEETLQGKRSVKEIHLDKYGNMESVDTIEEGSKGNNIKLTIDLAFQDSVDALLKSYFNSELENGGAKYSEGVYAVALNPKTGAVLSMSGIKHDLKTGELTPDSLGTVTNVFVPGSVVKAATISSGWENGVLSGNQTLTDQSIVFQGSAPINSWYTQAYGSFPITAVQALEYSSNTYMVQTALGLMGQTYQPNMFVGTSNLESAMEKLRSTFGEYGLGTATGIDLPDESTGFVPKEYSFANYITNAFGQFDNYTPMQLAQYVATIANNGVRVAPRIVEGIYGNNDKGGLGDLIQQLQPTEMNKVNISDSDMSILHQGFYQVAHGTSGLTTGRAFSNGALVSISGKTGTAESYVADGQQATNTNAVAYAPSDNPQIAVAVVFPHNTNLTNGVGPSIARDIINLYQKYHPMN
binding [5]: binds weakly

Further lines, results first:

binding [3]: binds weakly
Molecule: H-DivIB (His-tagged full length DivIB of Streptococcus pneumoniae) (S. pneumoniae R6)

binding [5]: binds
binding [6]: binds
B2: FtsL (untagged full length FtsL of Streptococcus pneumoniae) (protein, UniProt Q8DR70 1-105)
chain: MAEKMEKTGQILQMQLKRFSRVEKAFYFSIAVTTLIVAISIIFMQTKLLQVQNDLTKINAQIEEKKTELDDAKQEVNELLRAERLKEIANSHDLQLNNENIRIAE
